At least one structure is not confirmed: it was looked up by name or label, or the drawing left a doubt.
Columns and labels:
Assay type in all cases: in vivo, mouse
Parameters in all cases: key: Reduction of deficit (Y/N); Reduction of deficit (Y/N)
[1] = test system: Fmr1 knockout (KO) or Wild Type (WT) mice; assay: Contextual fear conditioning (freezing)
Method: (§1) Fmr1 knockout mice (KO2) mice (The Dutch-Belgium Fragile X Consortium, 1994), initially obtained from the Jackson Laboratory, and wild type (WT) littermates were generated on a C57BL/6J background and repeatedly backcrossed onto a C57BL/6J background for more than eight generations. The Fmr1 knockout mice were housed in groups of the same genotype in a temperature and humidity controlled room with a 12-h light-dark cycle (lights on from 7 am to 7 pm; testing was conducted during light phase). Room temperature and humidity were recorded continuously in the holding room while food and water were available ad libitum. Testing was conducted on healthy Fmr1 knockout mice and their wild type littermates (N=10 mice per treatment group) at 2 or 6 months of age during the behavioral experiments. Mice were housed in commercial plastic cages and experiments were conducted in line with the requirements of the UK Animals (Scientific Procedures) Act, 1986. All experiments were conducted with experimenters blind to genotype and drug treatment. Animals were allowed a minimum acclimatization period of one week prior to performing any experiment. No prophylactic or therapeutic treatment was administered during the acclimatization period.
(§2) In all cases, saline was used as a vehicle (control).
In the fear conditioning experiment, mice were placed into a novel environment (dark chamber) and received pairings of a cue and electric footshock (0.2 mA for 1 sec (Study 1) or 0.7 mA for 0.5 sec (Study 2)). […] Freezing time was defined as the time that the mice spent in immobile behavior, except for respiration. The data was expressed as the percentage of the test period. 24 hours after a training session, mice were tested for 5 min in the training chamber with no shock presentation and observed for freezing behavior.
(§3) Multivariate analysis of variance was employed to assess group differences across data. Repeated measures ANOVA were performed for behavioral data. Statistically significant effects in each ANOVA were followed with post hoc comparisons, using the Newman-Keuls test (Study 1) or the Tukey test (Study 2). A p value of less than 0.05 was considered significant.

[2] = test system: Fmr1 knockout (KO) or Wild Type (WT) mice; assay: Social approach (sniffing of a juvenile, Trial 1); details: for Reduction of deficit (Y/N): Social approach behaviour: 2 month old mice
Method: as §1, §2
Mice are a social species that engage in easily scored social behaviors including approaching, following, sniffing, grooming, aggressive encounters, sexual interactions, parental behaviors, nesting, and sleeping in a group huddle. Social approach in mice was evaluated by sniffing duration directed to a novel mouse.
(§4) Mice were placed in a test arena/cage of the same order of magnitude in size as the adult's home cage (40×23×12 cm cage, with a Perspex lid to facilitate viewing the mice) with fresh wood chippings on the floor. A background mouse odor was created by putting in some non-experimental mice into the apparatus prior to testing. Mice were transferred to the experimental room 10-15 min prior to testing. A test subject and a juvenile were placed simultaneously into the test cage. The total duration and number of bouts of social investigation, defined as sniffing and close following (<2 cm from the tail) of the stimulus juvenile by the tested mouse, was assessed for 3 min. 30 min later, the test was repeated using the same stimulus juvenile. Data parameters collected were the total duration and total number of bouts of sniffing for the acquisition and recognition. A social memory ratio was derived, defined as trial 2/trial 1+2. Therefore, no memory (e.g. 20/(20+20)=0.5 and memory (e.g. 10/(20+10)=<0.5.
Multivariate analysis of variance was employed to assess group differences across data. Repeated measures ANOVA were performed for behavioral data. […]

[3] = test system: Fmr1 knockout (KO) or Wild Type (WT) mice; assay: Social recognition memory (Trial 2, social memory ratio)
Method: as §1, §2, §4, §3
Social memory ratio was defined as the duration of sniffing bouts: trial 2/trial 1+2. […]

GST [4] = assay: Brain GST levels
GST [5] = assay: Lymphocyte GST; details: 2 month old mice

Cc1ncc(CO)c(CO)c1O.O=C1CC[C@@H](C(=O)O)N1 [metadoxine, pyridoxol L,2-pyrrolidon-5 carboxylate]
Reduction of deficit (Y/N): Contextual fear conditioning ([1]; 2 month old mice, 150 mg/kg ip): Y | Reduction of deficit (Y/N): Contextual fear conditioning ([1]; 2 month old mice, 150 mg/kg po): Y | Reduction of deficit (Y/N): Contextual fear conditioning ([1]; 2 month old mice, 300 mg/kg po): Y | Reduction of deficit (Y/N): Contextual fear conditioning ([1]; 6 month old mice, 150 mg/kg): Y | Reduction of deficit (Y/N): Social approach behaviour ([2]; 150 mg/kg ip): Y | Reduction of deficit (Y/N): Social approach behaviour ([2]; 150 mg/kg po): Y | Reduction of deficit (Y/N): Social approach behaviour ([2]; 300 mg/kg po): Y | Reduction of deficit (Y/N): Social approach ([2]; 6 month old mice, 150 mg/kg): Y | Reduction of deficit (Y/N): Social memory ([3]; 2 month old mice, 150 mg/kg ip): Y | Reduction of deficit (Y/N): Social memory ([3]; 2 month old mice, 150 mg/kg po): Y | Reduction of deficit (Y/N): Social memory ([3]; 2 month old mice, 300 mg/kg po): Y | Reduction of deficit (Y/N): Social memory ([3]; 6 month old mice, 150 mg/kg): Y | Reduction of deficit (Y/N): Hippocampal GST (GST [4]; 2 month old mice, 150 mg/kg ip): N | Reduction of deficit (Y/N): Prefrontal cortex GST (GST [4]; 2 month old mice, 150 mg/kg ip): N | Reduction of deficit (Y/N): Striatum GST (GST [4]; 2 month old mice, 150 mg/kg ip): Y | Reduction of deficit (Y/N): Brain GST levels (GST [4]; 6 month old mice, 150 mg/kg): Y | Reduction of deficit (Y/N): Lymphocyte GST (GST [5]; 150 mg/kg ip): N | Reduction of deficit (Y/N): Lymphocyte GST (GST [5]; 150 mg/kg po): N | Reduction of deficit (Y/N): Lymphocyte GST (GST [5]; 300 mg/kg po): N
